Measurements from US20260193265A1, “Phyllochlorin analogues suitable for use in photodynamic therapy (PDT)” (RMW CHO Group Limited, priority 2022, published 2026).

Tested on: Human ovarian cancer cell line SKOV3
Assay: Therapeutic index (phototoxicity IC90 vs dark toxicity IC10)
Format: cell-based
Conditions: calculated using phototoxicity IC90 vs dark toxicity IC10, SKOV3 cells

SMILES | Therapeutic Index
C=Cc1c(C)c2cc3nc(c(C)c4cc(C)c(cc5nc(cc1[nH]2)C(C)=C5CC)[nH]4)[C@@H](CCCS[C@@H]1O[C@H](CO)[C@@H](O)[C@H](O)[C@H]1O)[C@@H]3C [Compound 5] | 263.60
C=Cc1c(C)c2cc3nc(c(C)c4cc(C)c(cc5nc(cc1[nH]2)C(C)=C5CC)[nH]4)[C@@H](CCCO)[C@@H]3C [Compound 1, 3-((7S,8S)-18-ethyl-2,5,8,12,17-pentamethyl-13-vinyl-7H,8H-porphyrin-7-yl)propan-1-ol] | 384.17
C=Cc1c(C)c2cc3nc(c(C)c4cc(C)c(cc5nc(cc1[nH]2)C(C)=C5CC)[nH]4)[C@@H](CCCOC(C)=O)[C@@H]3C [Compound 2, 3-((7S,8S)-18-ethyl-2,5,8,12,17-pentamethyl-13-vinyl-7H,8H-porphyrin-7-yl)propyl acetate] | 139.44
C=Cc1c(C)c2cc3nc(c(C)c4cc(C)c(cc5nc(cc1[nH]2)C(C)=C5CC)[nH]4)[C@@H](CCC[P+](c1ccccc1)(c1ccccc1)c1ccccc1)[C@@H]3C [Compound 10, phyllochlorin 3-triphenylphosphoniumpropyl iodide] | 1,506.67
C=Cc1c(C)c2cc3nc(c(C)c4cc(C)c(cc5nc(cc1[nH]2)C(C)=C5CC)[nH]4)[C@@H](CCC[n+]1ccccc1)[C@@H]3C [Compound 9, phyllochlorin 3-pyridiniumpropyl iodide] | 818.33
C=Cc1c(C)c2cc3nc(c(C)c4cc(C)c(cc5nc(cc1[nH]2)C(C)=C5CC)[nH]4)[C@@H](CCCNC(=O)[C@@H](N)C(C)C)[C@@H]3C [Compound 8, phyllochlorin 3-aminopropyl-valine amide hydrochloride] | 132.11
C=Cc1c(C)c2cc3nc(c(C)c4cc(C)c(cc5nc(cc1[nH]2)C(C)=C5CC)[nH]4)[C@@H](CCCN)[C@@H]3C [Compound 7, phyllochlorin 3-aminopropyl] | 231.00
C=Cc1c(C)c2cc3nc(c(C)c4cc(C)c(cc5nc(cc1[nH]2)C(C)=C5CC)[nH]4)[C@@H](CCCSCCCS[C@@H]1O[C@H](CO)[C@@H](O)[C@H](O)[C@H]1O)[C@@H]3C [Compound 4, (2S,3R,4S,5S,6R)-2-((3-((3-((7S,8S)-18-ethyl-2,5,8,12,17-pentamethyl-13-vinyl-7H,8H-porphyrin-7-yl)propyl)thio)propyl)thio)-6-(hydroxymethyl)tetrahydro-2H-pyran-3,4,5-triol] | 330.43

Counter-ions that a name gives are not always drawn.
